In the supplement of paper PMC8166895:
Where a name gives a salt, the structure may show the parent alone. The list shows a part of the results. Most entries show no effect beyond the scatter of the controls.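 Differential scanning fluorimetry gave melting temperatures in a one-replicate pilot screen of a library of approved drugs plus clinical or known-target compounds. Hits increasing melting point at least 2 °C were the strongest stabilizers, while negative shifts signify destabilization.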

What follows are compounds tested on SARS-CoV-2 main protease (Mpro, nsp5) (assay: thermal shift ΔTm of Mpro relative to plate average Tm; higher = stronger thermal stabilization of Mpro (binding)). Details: 10 µM; protein concentration 1 µM.

Row | Compound | thermal shift ΔTm of Mpro
1 | COCCCOc1ccnc(C[S+]([O-])c2nc3ccccc3[nH]2)c1C (centres undefined) [Rebeprazole sodium] | -1.04 °C
2 | O=C(O)Cc1cc(I)c(Oc2ccc(O)c(I)c2)c(I)c1 [Tiratricol] | -0.0767 °C
3 | Cc1cc(Nc2ncc(Cl)c(Nc3ccccc3S(=O)(=O)C(C)C)n2)c(OC(C)C)cc1C1CCNCC1 | 0.0451 °C
4 | NS(=O)(=O)C#Cc1ccccc1 [Pifithrin-μ] | -0.0332 °C
5 | Cc1ccc(C(=O)C(C)CN2CCCCC2)cc1 (centres undefined) [Tolperisone HCl] | 0.0309 °C
6 | CC(C)(O)CNc1nc(Nc2ccnc(C(F)(F)F)c2)nc(-c2cccc(C(F)(F)F)n2)n1 [Enasidenib] | 0.17 °C
7 | CNCC[C@@H](Oc1ccccc1C)c1ccccc1 [Atomoxetine HCl] | 0.199 °C
8 | CC(C)(C)c1cc(NC(=O)Nc2ccc(Oc3ccnc4[nH]c(=O)cnc34)cc2F)n(-c2ccccc2)n1 | -0.00572 °C
9 | O=C(CCCCC(=O)Nc1c(I)cc(I)c(C(=O)O)c1I)Nc1c(I)cc(I)c(C(=O)O)c1I [Iodipamide] | -0.131 °C
10 | NS(=O)(=O)Oc1ccc2c3c(c(=O)oc2c1)CCCCC3 [Irosustat] | 0.124 °C
11 | N[C@@H](CC(=O)N1CCn2c(nnc2C(F)(F)F)C1)Cc1cc(F)c(F)cc1F [Sitagliptin phosphate monohydrate] | -0.03 °C
12 | N[C@@H](CC(=O)N1CCn2c(nnc2C(F)(F)F)C1)Cc1cc(F)c(F)cc1F [Sitagliptin] | 0.00208 °C
13 | O=C(NCc1ccc2c(c1)OCO2)c1c(Cl)cccc1Cl | 0.0211 °C
14 | Nc1ccccc1NC(=O)CCCCCCC(=O)Nc1ccccc1 | 0.184 °C
15 | Cn1cc(C2=C(c3cn(CCCSC(=N)N)c4ccccc34)C(=O)NC2=O)c2ccccc21 [Ro 31-8220 Mesylate] | 0.0167 °C
16 | C[C@@H]1O[C@@H](O[C@H]2[C@H](Oc3cc(O)c4c(c3)O[C@H](c3ccc(O)cc3)CC4=O)O[C@H](CO)[C@@H](O)[C@@H]2O)[C@H](O)[C@H](O)[C@H]1O [Naringin] | -0.0237 °C
17 | CNC(=O)Oc1cccc2ccccc12 [Carbaryl] | 0.0382 °C
18 | CCOC(=O)c1cncn1[C@H](C)c1ccccc1 [Etomidate] | 0.279 °C
19 | C/C(O)=C(\C#N)C(=O)Nc1ccc(C(F)(F)F)cc1 [Teriflunomide] | 0.189 °C
20 | COc1nc(C)cnc1NS(=O)(=O)c1cccnc1-c1ccc(-c2nnco2)cc1 [Zibotentan (ZD4054)] | 0.217 °C
21 | Cn1cc(/C=C/C(=O)c2cccc(F)c2)cc1/C=C/C(=O)NO | 0.611 °C
22 | N=C(N/N=C/c1ccc(Cl)cc1)N/N=C/c1ccc(Cl)cc1 [Robenidine hydrochloride] | 0.0303 °C

Row | Compound | thermal shift ΔTm of Mpro
23 | Cc1nc(N(C)C(=O)Cc2ccc(-c3ccccn3)cc2)sc1S(N)(=O)=O [Pritelivir (BAY 57-1293)] | -0.222 °C
24 | CC(=O)OCC(=O)[C@@]12OC3(CCCC3)O[C@@H]1C[C@H]1[C@@H]3CCC4=CC(=O)C=C[C@]4(C)[C@@]3(F)[C@@H](O)C[C@@]12C [Amcinonide] | 0.152 °C
25 | Nc1nccc2c1ncn2C1C=C(CO)C(O)C1O (centres undefined) [3-Deazaneplanocin A (DZNeP)] | 0.0249 °C
26 | C[C@@H]1O[C@@H](OC[C@H]2O[C@@H](Oc3c(-c4ccc(O)c(O)c4)oc4cc(O)cc(O)c4c3=O)[C@H](O)[C@@H](O)[C@@H]2O)[C@H](O)[C@H](O)[C@H]1O [Rutin] | -0.169 °C
27 | CC(O)(CS(=O)(=O)c1ccc(F)cc1)C(=O)Nc1ccc(C#N)c(C(F)(F)F)c1 (centres undefined) [Bicalutamide] | 0.119 °C
28 | COc1ccnc2[nH]cc(C(=O)C(=O)N3CCN(C(=O)c4ccccc4)C[C@H]3C)c12 | 0.0379 °C
29 | Cc1nn(C)c(COc2ccc(N3CCN(S(=O)(=O)N(C)C)CC3)cc2)c1-c1cccc2c(CCCOc3cccc4ccccc34)c(C(=O)O)n(CCN3CCOCC3)c12 | 0.0497 °C
30 | CO/N=C(\C(=O)N[C@@H]1C(=O)N2C(C(=O)O)=C(CSC(=O)c3ccco3)CS[C@H]12)c1csc(N)n1 [Sodium ceftiofur] | 0.0826 °C
31 | CO/N=C(\C(=O)N[C@@H]1C(=O)N2C(C(=O)O)=C(CSC(=O)c3ccco3)CS[C@H]12)c1csc(N)n1 [Ceftiofur HCl] | 0.164 °C
32 | CN(C)C(=O)N[C@H]1CC[C@H](CCN2CCN(c3cccc(Cl)c3Cl)CC2)CC1 [Cariprazine] | -0.047 °C
33 | CN1[C@@H]2CC[C@H]1C[C@@H](OC(c1ccccc1)c1ccccc1)C2 [Benztropine mesylate] | 0.0524 °C
34 | CN1CCc2cc3c(cc2C1C1OC(=O)c2c1ccc1c2OCO1)OCO3 (single isomer, unassigned; (+)) [(+)-Bicuculline] | -0.115 °C
35 | N=C(N)c1ccc(N=NNc2ccc(C(=N)N)cc2)cc1 [Diminazene Aceturate] | -0.179 °C
36 | C[C@H](CCC(=O)O)[C@H]1CC[C@H]2[C@@H]3C[C@H](O)[C@@H]4C[C@H](O)CC[C@]4(C)[C@H]3CC[C@]12C [Hyodeoxycholic acid (HDCA)] | -0.209 °C
37 | O=C(Nc1ccccc1)OCC(CN1CCCCC1)OC(=O)Nc1ccccc1 (centres undefined) [Diperodon hydrochloride] | 0.288 °C
38 | Cc1nc2c(C)cccn2c(=O)c1CCN1CCC(c2noc3cc(F)ccc23)CC1 [Ocaperidona] | 0.0502 °C
39 | COc1cc2c(cc1OC)-c1c(C)c3ccc(OC)c(OC)c3c[n+]1CC2 [Dehydrocorydaline nitrate] | -0.0165 °C
40 | COc1cc2c(cc1OC)-c1c(C)c3ccc(OC)c(OC)c3c[n+]1CC2 [Dehydrocorydalin] | -0.0936 °C
41 | CC1(C)C(=O)N(CCN2CCC(C(=O)c3ccc(F)cc3)CC2)c2ccccc21 | -0.191 °C
42 | CC(C)(C)OC(=O)N[C@H]1CCCCC/C=C\[C@@H]2C[C@@]2(C(=O)NS(=O)(=O)C2CC2)NC(=O)[C@@H]2C[C@@H](OC(=O)N3Cc4cccc(F)c4C3)CN2C1=O [Danoprevir (ITMN-191)] | 0.193 °C
43 | CCN1CCN(C(=O)Cc2ccc(Nc3ncc(F)c(Nc4ccc(C(=O)Nc5ccccc5Cl)cc4)n3)cc2)CC1 [Aurora A Inhibitor I] | 0.431 °C
44 | CC[C@@]1(O)C(=O)OCc2c1cc1n(c2=O)Cc2cc3c(CN(C)C)c(O)ccc3nc2-1 [Topotecan HCl] | 0.0853 °C

Two records drawn at random from those above:
Row | Compound | thermal shift ΔTm of Mpro
28 | COc1ccnc2[nH]cc(C(=O)C(=O)N3CCN(C(=O)c4ccccc4)C[C@H]3C)c12 | 0.0379 °C
39 | COc1cc2c(cc1OC)-c1c(C)c3ccc(OC)c(OC)c3c[n+]1CC2 [Dehydrocorydaline nitrate] | -0.0165 °C
